From PMC4259421
No constants are given. Whether binding was seen depends on the method and setting. In cells and extracts the contact can be indirect. Some binding calls cover weakened binding; strength is not graded here.

Amino acid sequences for entries named in this document (tags omitted).
UniProt P49792: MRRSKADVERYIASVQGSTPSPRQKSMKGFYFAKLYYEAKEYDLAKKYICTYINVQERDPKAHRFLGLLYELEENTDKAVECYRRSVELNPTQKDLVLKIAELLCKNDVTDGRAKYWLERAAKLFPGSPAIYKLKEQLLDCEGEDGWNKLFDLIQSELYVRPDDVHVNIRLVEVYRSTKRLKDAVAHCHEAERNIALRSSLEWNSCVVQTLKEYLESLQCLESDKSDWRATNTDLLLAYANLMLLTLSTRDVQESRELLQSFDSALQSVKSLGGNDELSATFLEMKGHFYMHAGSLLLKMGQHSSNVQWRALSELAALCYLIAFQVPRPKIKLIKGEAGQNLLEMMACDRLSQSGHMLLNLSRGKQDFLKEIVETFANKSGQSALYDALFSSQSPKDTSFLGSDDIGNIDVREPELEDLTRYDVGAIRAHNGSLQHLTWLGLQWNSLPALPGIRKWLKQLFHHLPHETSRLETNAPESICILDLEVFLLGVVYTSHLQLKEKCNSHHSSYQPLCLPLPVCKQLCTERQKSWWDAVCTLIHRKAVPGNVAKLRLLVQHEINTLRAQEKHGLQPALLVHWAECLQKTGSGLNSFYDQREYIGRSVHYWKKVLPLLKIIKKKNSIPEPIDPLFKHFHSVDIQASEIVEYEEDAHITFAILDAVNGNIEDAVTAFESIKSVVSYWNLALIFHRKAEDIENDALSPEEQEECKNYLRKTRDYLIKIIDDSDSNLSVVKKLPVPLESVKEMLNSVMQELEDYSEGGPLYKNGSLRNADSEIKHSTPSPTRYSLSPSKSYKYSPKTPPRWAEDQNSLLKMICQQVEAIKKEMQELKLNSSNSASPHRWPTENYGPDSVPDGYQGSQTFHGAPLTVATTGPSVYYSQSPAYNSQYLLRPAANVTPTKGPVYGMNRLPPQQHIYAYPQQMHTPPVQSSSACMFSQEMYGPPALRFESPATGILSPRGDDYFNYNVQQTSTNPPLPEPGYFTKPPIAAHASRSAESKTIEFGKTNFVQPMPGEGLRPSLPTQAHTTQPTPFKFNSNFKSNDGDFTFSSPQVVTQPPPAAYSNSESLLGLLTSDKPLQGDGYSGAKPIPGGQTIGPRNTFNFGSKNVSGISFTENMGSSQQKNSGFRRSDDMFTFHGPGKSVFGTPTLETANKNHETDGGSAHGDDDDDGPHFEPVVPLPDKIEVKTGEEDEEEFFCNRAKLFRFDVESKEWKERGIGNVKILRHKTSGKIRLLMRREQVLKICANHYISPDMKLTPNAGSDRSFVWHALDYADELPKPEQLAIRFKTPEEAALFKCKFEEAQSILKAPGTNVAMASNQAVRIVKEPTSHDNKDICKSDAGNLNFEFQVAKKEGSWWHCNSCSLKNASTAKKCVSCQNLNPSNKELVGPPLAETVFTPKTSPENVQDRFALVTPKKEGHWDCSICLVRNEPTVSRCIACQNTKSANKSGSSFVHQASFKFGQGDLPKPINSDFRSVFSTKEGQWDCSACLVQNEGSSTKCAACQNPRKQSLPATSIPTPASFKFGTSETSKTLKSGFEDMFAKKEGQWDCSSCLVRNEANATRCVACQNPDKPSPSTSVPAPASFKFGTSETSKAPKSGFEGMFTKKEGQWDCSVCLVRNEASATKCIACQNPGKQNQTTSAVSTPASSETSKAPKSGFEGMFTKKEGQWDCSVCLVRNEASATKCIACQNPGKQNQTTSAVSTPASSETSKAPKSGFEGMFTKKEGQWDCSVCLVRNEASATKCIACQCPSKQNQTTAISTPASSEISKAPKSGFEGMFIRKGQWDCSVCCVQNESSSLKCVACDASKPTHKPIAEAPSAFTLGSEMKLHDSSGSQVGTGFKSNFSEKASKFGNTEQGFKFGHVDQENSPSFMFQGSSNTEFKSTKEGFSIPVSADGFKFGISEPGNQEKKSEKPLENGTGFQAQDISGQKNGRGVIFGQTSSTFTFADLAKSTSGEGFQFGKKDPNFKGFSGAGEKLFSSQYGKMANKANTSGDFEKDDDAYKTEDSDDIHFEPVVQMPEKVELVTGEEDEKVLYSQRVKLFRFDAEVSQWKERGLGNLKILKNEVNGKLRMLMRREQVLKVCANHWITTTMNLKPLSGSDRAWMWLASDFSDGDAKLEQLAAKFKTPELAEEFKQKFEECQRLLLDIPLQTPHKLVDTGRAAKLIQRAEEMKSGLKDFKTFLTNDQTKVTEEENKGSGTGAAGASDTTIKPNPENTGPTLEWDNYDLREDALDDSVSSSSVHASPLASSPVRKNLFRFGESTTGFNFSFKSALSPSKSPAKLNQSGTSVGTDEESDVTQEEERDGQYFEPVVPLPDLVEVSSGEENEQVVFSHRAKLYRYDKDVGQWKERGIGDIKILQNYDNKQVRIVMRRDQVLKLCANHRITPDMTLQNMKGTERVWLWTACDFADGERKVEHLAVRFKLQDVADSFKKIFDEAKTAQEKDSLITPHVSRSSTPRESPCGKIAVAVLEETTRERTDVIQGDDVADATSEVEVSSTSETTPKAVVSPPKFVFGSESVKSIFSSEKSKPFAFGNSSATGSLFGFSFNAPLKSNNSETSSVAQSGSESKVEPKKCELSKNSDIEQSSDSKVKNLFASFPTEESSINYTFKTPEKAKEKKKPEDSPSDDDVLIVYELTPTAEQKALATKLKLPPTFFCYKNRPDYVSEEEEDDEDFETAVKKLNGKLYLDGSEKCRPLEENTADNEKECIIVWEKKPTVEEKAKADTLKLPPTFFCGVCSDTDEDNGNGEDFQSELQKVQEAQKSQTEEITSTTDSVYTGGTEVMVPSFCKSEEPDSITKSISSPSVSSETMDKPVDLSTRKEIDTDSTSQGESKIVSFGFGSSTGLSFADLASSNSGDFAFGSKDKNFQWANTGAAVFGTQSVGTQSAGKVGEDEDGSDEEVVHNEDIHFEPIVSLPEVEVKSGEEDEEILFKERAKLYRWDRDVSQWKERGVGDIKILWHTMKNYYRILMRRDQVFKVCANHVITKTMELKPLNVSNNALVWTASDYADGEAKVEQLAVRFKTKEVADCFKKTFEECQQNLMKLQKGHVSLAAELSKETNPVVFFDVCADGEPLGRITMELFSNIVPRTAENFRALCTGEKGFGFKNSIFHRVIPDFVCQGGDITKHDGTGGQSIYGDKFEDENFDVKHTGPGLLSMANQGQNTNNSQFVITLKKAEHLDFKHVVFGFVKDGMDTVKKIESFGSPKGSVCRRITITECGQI
UniProt Q14974: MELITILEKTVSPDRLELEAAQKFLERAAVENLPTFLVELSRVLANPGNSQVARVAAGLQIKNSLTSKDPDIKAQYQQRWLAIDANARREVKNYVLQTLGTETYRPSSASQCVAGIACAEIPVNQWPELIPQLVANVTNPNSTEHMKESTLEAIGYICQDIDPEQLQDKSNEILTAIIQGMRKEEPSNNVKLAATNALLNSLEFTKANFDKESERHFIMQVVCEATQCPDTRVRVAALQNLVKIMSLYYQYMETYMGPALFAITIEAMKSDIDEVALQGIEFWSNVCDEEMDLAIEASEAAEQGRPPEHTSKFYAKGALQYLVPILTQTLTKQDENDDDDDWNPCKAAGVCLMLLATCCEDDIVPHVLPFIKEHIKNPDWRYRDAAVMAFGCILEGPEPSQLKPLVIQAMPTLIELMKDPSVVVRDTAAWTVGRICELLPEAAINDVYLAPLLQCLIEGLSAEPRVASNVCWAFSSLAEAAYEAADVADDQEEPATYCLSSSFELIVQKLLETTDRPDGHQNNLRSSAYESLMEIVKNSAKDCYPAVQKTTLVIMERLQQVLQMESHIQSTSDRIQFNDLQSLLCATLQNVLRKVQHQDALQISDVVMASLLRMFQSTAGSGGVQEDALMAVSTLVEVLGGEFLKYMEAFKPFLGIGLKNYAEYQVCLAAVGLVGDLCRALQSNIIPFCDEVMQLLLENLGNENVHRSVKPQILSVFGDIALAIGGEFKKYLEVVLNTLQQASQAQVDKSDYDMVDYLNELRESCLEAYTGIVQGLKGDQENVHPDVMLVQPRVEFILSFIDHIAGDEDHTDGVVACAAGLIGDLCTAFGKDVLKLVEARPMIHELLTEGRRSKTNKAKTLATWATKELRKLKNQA
UniProt Q8N122: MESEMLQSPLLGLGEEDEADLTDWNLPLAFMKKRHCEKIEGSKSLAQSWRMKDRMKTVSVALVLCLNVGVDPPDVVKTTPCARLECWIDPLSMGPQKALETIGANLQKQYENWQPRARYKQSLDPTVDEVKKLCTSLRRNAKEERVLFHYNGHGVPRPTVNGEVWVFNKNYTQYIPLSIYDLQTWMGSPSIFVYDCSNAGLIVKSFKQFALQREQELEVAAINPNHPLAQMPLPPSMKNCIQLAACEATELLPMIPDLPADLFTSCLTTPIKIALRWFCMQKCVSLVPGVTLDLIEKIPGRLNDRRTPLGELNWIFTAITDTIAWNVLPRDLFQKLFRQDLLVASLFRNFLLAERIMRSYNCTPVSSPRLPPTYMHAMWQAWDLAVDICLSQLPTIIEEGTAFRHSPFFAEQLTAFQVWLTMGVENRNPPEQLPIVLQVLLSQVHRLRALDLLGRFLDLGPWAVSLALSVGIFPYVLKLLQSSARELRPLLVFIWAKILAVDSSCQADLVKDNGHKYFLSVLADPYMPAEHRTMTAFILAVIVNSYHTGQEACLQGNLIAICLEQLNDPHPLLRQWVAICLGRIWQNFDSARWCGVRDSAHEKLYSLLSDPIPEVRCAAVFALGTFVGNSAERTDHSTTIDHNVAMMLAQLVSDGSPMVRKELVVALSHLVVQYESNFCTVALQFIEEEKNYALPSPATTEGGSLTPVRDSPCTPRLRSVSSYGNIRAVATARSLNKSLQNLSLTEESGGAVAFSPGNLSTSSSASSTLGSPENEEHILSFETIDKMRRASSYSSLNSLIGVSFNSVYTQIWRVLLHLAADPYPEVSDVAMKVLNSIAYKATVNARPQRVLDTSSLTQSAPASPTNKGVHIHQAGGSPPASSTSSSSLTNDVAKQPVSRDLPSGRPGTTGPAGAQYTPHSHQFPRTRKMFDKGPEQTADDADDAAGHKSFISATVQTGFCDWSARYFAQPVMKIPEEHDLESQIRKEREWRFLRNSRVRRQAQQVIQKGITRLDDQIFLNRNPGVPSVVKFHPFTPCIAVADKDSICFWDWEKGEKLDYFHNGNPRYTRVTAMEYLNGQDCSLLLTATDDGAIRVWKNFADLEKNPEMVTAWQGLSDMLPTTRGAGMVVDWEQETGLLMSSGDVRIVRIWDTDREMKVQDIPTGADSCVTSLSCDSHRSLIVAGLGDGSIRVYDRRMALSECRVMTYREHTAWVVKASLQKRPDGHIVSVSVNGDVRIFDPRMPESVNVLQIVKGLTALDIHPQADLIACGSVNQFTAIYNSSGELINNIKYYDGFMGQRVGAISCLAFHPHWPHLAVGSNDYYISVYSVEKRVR

Biological target: Ran Binding Protein 2 (RanBP2, also known as Nup358) (human (endogenous in MDA-MB-435, MDA-MB-231, HeLa, HEK 293T)) (UniProt P49792)
Assay: co-IP; RanBP2 immunoprecipitates from total cellular lysates of actively growing HEK 293T cells lysed in buffer E; immunoblot

| Substance | binding |
| --- | --- |
| importin β1 (from UniProt Q14974 1-876) | binds |
| raptor (from UniProt Q8N122 1-1335) | no binding |
